{"source": "ChEMBL document CHEMBL4266045", "about": "“Understanding Molecular Drivers of Melanin Binding To Support Rational Design of Small Molecule Ophthalmic Drugs” (J Med Chem, 2018)", "experiment": "Lipophilicity, log D of compound", "settings": "octanol/water"}
{"molecule": "Nc1nc2ccc(OC(F)(F)F)cc2s1", "note": "[RILUZOLE]", "values": [{"measurement": "logD", "result": 2.89}]}
